From patent US20190030139A1, “USP10 MODULATION OF AMPK AND MTOR” (MAYO FOUNDATION FOR MEDICAL EDUCATION AND RESEARCH, priority 2016, published 2019)
Results are given in words; binding and its absence hold for the method and conditions named. Binding seen in cells or lysates may run through a third protein. Some entries that bind do so weakly or less than the wild type.

Protein sequences, listed by entry. Tags and fused reporters are not part of them. Lines headed by an entry give the natural chain unless they say otherwise; changes in a name come on top.
UniProt Q13131: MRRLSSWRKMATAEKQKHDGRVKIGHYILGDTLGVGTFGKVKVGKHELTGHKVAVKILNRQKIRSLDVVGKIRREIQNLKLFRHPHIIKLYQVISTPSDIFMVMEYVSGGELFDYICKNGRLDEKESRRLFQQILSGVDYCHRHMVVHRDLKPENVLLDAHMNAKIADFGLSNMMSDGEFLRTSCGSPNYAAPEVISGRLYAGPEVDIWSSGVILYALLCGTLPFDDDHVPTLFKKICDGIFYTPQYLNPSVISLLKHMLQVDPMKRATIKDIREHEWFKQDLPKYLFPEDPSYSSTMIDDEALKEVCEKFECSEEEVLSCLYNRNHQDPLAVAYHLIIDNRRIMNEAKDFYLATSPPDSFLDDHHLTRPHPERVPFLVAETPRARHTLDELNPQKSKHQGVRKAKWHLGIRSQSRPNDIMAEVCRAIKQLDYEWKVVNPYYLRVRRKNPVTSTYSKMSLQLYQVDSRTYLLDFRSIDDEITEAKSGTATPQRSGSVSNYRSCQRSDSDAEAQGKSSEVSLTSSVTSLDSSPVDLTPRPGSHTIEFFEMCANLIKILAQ
UniProt P54646: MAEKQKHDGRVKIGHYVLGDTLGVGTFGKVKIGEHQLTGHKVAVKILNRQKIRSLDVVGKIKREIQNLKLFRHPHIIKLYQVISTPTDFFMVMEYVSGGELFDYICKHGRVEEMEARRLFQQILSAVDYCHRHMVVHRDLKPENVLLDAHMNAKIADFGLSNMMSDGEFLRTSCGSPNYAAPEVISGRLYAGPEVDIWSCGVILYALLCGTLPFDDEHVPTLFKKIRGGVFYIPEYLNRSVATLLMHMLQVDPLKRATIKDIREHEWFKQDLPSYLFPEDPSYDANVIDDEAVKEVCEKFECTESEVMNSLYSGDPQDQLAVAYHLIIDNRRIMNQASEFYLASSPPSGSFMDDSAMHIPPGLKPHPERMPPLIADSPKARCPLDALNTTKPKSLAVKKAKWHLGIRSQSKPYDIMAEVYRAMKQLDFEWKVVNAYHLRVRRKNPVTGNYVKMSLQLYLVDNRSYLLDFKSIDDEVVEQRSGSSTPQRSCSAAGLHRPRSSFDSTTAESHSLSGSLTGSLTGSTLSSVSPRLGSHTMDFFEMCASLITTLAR
UniProt Q14694: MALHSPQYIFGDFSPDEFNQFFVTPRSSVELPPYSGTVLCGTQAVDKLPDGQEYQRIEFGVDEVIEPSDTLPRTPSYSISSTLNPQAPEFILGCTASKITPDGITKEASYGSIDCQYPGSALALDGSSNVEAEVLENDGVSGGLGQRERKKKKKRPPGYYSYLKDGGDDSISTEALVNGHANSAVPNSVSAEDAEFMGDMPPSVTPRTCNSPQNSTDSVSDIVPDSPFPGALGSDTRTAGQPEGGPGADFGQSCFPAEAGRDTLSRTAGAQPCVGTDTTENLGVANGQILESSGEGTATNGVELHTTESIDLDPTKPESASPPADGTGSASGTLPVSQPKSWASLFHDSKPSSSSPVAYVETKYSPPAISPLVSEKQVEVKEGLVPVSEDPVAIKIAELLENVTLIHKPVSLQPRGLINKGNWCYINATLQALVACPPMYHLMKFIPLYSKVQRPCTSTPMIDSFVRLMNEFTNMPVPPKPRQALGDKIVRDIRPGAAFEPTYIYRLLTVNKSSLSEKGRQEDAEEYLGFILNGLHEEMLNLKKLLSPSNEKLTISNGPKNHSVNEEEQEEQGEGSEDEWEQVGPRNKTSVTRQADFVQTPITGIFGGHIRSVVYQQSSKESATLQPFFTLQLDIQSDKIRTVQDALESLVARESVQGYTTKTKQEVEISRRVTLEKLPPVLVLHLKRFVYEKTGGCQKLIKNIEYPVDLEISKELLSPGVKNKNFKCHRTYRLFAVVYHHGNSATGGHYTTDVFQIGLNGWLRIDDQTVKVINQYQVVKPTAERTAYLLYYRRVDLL

Key:
[1] = biological target: AMPKα1 (in HCT116 cell lysates) (human) (UniProt Q13131); assay: co-immunoprecipitation from HCT116 lysates (FIGS. 3B, 3C)
[2] = biological target: AMPKα2 (in HCT116 cell lysates) (human) (UniProt P54646); assay: co-immunoprecipitation from HCT116 lysates (FIGS. 3B, 3D)
[3] = biological target: AMPKα1 (in HCT116 cell lysates) (human) (UniProt Q13131); assay: co-immunoprecipitation from HCT116 lysates with anti-USP10 or anti-AMPKα1 (FIGS. 3B, 3C)
[4] = biological target: AMPKα2 (in HCT116 cell lysates) (human) (UniProt P54646); assay: co-immunoprecipitation from HCT116 lysates with anti-USP10 or anti-AMPKα2 (FIGS. 3B, 3D)

Measured: binding

USP10 (in cell lysates, co-immunoprecipitation) (from UniProt Q14694 2-798) (enzyme)
binds: all assays above
